In PubChem BioAssay AID504467 (National Center for Advancing Translational Sciences (NCATS), 2011):
The whole screen tested about 330,000 compounds, of which about 7,700 (2.3%) were called active. Inconclusive results, whose numbers are uncertain, are shown with a selection of clear calls. Calls follow the shape of the dose curve; as a rule, active = well fitted inhibition curve with a large enough effect; inconclusive = small, poorly fitted or top-dose-only effect, or effect the other way; inactive = flat fitted curve, though single readings scatter. Potencies beside an inconclusive call are fits to weak or partial responses and may not hold up.

experiment: qHTS screen for small molecules that inhibit ELG1-dependent DNA repair in human embryonic kidney (HEK293T) cells expressing luciferase-tagged ELG1; conditions: HEK293T ELG1-luciferase reporter, luminescence, 16 h, DNA damage induced by 5-fluorouridine; series mostly up to 46.1 µM; also: nearly all actives have a fitted effect of over 55% in size
Outline: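 Quantitative HTS, concentration-response format. 2,000 cells/well co-treated with 5-fluorouridine and compound, 16 hr in 5% CO2 at 37 °C; ONE-Glo luminescence read after 30 min.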
Potency is read from the fitted curve at half-maximal effect.

Row | SMILES | Potency
1 | COc1ccc(NN=Nc2ccc([N+](=O)[O-])cc2)cc1 | inconclusive: 14.6 µM [activator, partial curve]
2 | Cc1occc1C(=O)N/N=C/c1ccc2c(c1)OCO2 | inconclusive: 3.26 µM [activator, partial curve]
3 | CCN(CC)CCN(C(=O)c1ccc(CN2CCCCC2)o1)C(C(=O)NC1CCCCC1)c1ccc(F)cc1 (stereo not given) | inactive
4 | COc1ccc(C2C3C(=O)N(Cc4ccccc4)C(=O)C3ON2c2ccccc2)c(OC)c1OC (stereo not given) | inconclusive: 22.4 µM [inhibitor, single point]
5 | COc1ccc(NC(=O)c2ccsc2NC(C)=O)cc1 | inconclusive: 6.51 µM [activator, partial curve, poor fit]
6 | CCCCC(=O)Nc1ccc(NC(=O)c2ccccc2OC)cn1 | active: 18.4 µM
7 | Cc1ccccc1C1NC(c2ccccc2C)C([N+](=O)[O-])C(C)(C)C1[N+](=O)[O-] (stereo not given) | inconclusive: 16.4 µM [inhibitor, single point]
8 | Cc1ccc(S(=O)(=O)n2nc(-c3ccco3)nc2SCc2ccccc2)cc1 | inconclusive: 10.3 µM [activator, partial curve]
9 | CC(/C=N/n1c(-c2cc(C)[nH]n2)n[nH]c1=S)=C\c1ccco1 | inconclusive: 3.26 µM [inhibitor, single point]
10 | Cc1cc2c(c(=O)o1)C(c1cccs1)C(C#N)=C(N)O2 (stereo not given) | inactive
11 | S=C(Nc1cccc(Br)c1)N1CCn2cccc2C1c1cccnc1 (stereo not given) | inconclusive: 23.1 µM [inhibitor, single point]
12 | COC(=O)c1nc2n(n1)C(c1cccc(Cl)c1)C1=C(CCCC1=O)N2 (stereo not given) | inconclusive: 29.1 µM [activator, single point]
13 | COc1cc(C(=O)NCc2ccncc2)cc(OC)c1OC | inconclusive: 29.1 µM [activator, single point]
14 | COc1ccccc1CNC(=O)c1ccc2ccccc2n1 | inactive
15 | O=C(c1ccc(CN2CCc3ccccc3C2)cc1)N1CCN(c2ccccc2)CC1 | inconclusive: 25.9 µM [inhibitor, single point]
16 | COc1cc(C(=O)NC2CCCCC2)ccc1OCc1ccc(Cl)cc1Cl | inactive
17 | O=C1NN(c2ccccc2)C(=O)/C1=C\c1coc2ccc(O)cc2c1=O | inactive
18 | CCOC(=O)Nc1ccc2c(c1)N(C(=O)OC)c1ccccc1CC2 | inactive
19 | Cc1ccc(-c2csc(N)n2)s1 | inconclusive: 14.6 µM [activator, partial curve]
20 | CC(=O)c1sc(NC(=O)c2ccc(C)c(C)c2)nc1C | inconclusive: 4.61 µM [activator, partial curve]
21 | CCOC(=O)COc1c(OC)cc(Cl)cc1C1NC(=O)NC(C)=C1C(C)=O (stereo not given) | inconclusive: 9.2 µM [inhibitor, single point]
22 | Cc1ccc2cc3c(nc2c1)OCC3 | inconclusive: 16.4 µM [activator, single point]
23 | COC(=O)c1sccc1NC(=S)Nc1ccc(C)cc1 | inconclusive: 29.1 µM [activator, single point]

Nos. 14 through 15 from above:
Row | SMILES | Potency
14 | COc1ccccc1CNC(=O)c1ccc2ccccc2n1 | inactive
15 | O=C(c1ccc(CN2CCc3ccccc3C2)cc1)N1CCN(c2ccccc2)CC1 | inconclusive: 25.9 µM [inhibitor, single point]

(cont.)

Row | SMILES | Potency
24 | Cc1ccc(-c2nnc(-c3ccc(Br)cc3)o2)o1 | inconclusive: 13 µM [activator, partial curve]
25 | COc1ccc(NC(=O)N/C=C/c2ccccc2)cc1 | inconclusive: 16.4 µM [activator, partial curve]
26 | COc1ccc(NC(=O)N2CCN(C(=O)C(Cc3ccc(F)cc3)NC(C)=O)CC2)cc1 (stereo not given) | inconclusive: 16.4 µM [activator, single point]
27 | COC(=O)c1cc(OC)c(OC)cc1NC(=O)C(C)c1ccc([N+](=O)[O-])cc1 (stereo not given) | inconclusive: 25.9 µM [inhibitor, single point]
28 | O=C(NC(=S)N1CCCCC1c1cccnc1)c1ccc(Br)cc1 (stereo not given) | inactive
29 | COCCN(Cc1ccccc1)C(=O)Cc1ccc(OC)c(S(=O)(=O)N2CCOCC2)c1 | inconclusive: 20.6 µM [activator, partial curve, poor fit]
30 | CCCOc1ccc(C(=O)Nc2ccc(Cl)cn2)cc1 | inconclusive: 1.46 µM [activator, full curve]
31 | CCOC(=O)CNC(=O)C12CC3CC(CC(C3)C1)C2 | inactive
32 | CCN(CC)C(=O)/C(=C/c1cn(S(=O)(=O)N(C)C)c2ccccc12)NC(=O)c1ccc(OC)cc1 | inconclusive: 29.1 µM [activator, single point]
33 | CCOc1ccc(S(=O)(=O)N2CCN(C(=O)c3cccn3C)CC2)cc1 | inactive
34 | COc1cc(/C=C/C(=O)Nc2ccc3[nH]c(=O)[nH]c3c2)cc(OC)c1OC | inactive
35 | CCc1ccccc1NC(=O)c1ccc(OCc2c(C)noc2C)cc1 | inconclusive: 32.6 µM [activator, partial curve, poor fit]
36 | CCc1c(C)nc2cc(-c3cccs3)[nH]n2c1=O | inconclusive: 20.6 µM [activator, partial curve]
37 | CCN1C=C(Cc2ccc(OC)cc2)C2=C(C1)C(c1ccc(OC)cc1)C(C#N)=C(N)O2 (stereo not given) | active: 20.6 µM
38 | C=C(C)C1CCC2(C(=O)O)CCC3(C)C(CCC4C5(C)C(C=O)C(O)C(C)(C)C5CCC43C)C12 (stereo not given) | inconclusive: 7.3 µM [inhibitor, partial curve, poor fit]
39 | O=C(NC[C@@H]1CC[C@@H](Cc2ccc(-c3ccccc3)cc2)O1)Nc1ccc(Br)cc1 | inconclusive: 23.1 µM [inhibitor, partial curve, poor fit]
40 | O=C(NCCc1ccccn1)c1cc(-c2ccc(Cl)c(Cl)c2Cl)nc2ccccc12 | inconclusive: 29.1 µM [inhibitor, single point]
41 | CCS(=O)(=O)N1Cc2ccccc2CC1C(=O)Nc1cccc(OC)c1 (stereo not given) | active: 2.31 µM
42 | CNc1ccc(Br)cc(C(=O)/C=C/c2cc(OC)ccc2OC)c1=O | inconclusive: 29.1 µM [inhibitor, single point]
43 | Cc1ccc(S(=O)(=O)N2CCCCC2C(=O)O)s1 (stereo not given) | inactive
44 | Clc1ccc2c(N/N=C/c3ccc(Br)cc3)ccnc2c1 | active: 16.4 µM
45 | CC(NC(=O)Cc1ccc(-c2ccccc2)cc1)c1ccccc1 (stereo not given) | inactive
